These are yes or no findings as the source states them, for the method shown. Binding calls can cover weak binding; strength is not graded here.

The target of assay [1] is Filamin of mouse C2C12 myotubes (mouse). The assay is described as follows: affinity chromatography: model protein on Ni2+ resin; lysate of mouse C2C12 myotubes.
Assay [2] addresses Talin of mouse C2C12 myotubes (mouse). The assay is described as above.

B1: G4-β7 cytoplasmic domain model protein (designed binder)
chain: GSSHHHHHHSSGLVPRGSHMKLEALEGRLDALEGKLEALEGKLDALEGGGGKLSVEIYDRREYSRFEKEQQQLNWKQDSNPLYKSAITTTINPRFQEADSPTL
For B1, in assay [1], the binding result is “binds”.

B2: G1-β1D cytoplasmic domain model protein (designed binder)
chain: GSSHHHHHHSSGLVPRGSHMKLEALEGRLDALEGKLEALEGKLDALEGKLLMIIHDRREFAKFEKEKMNAKWDTQENPIYKSPINNFKNPNYGRKAGL
Regarding B2, the binding result in assay [2] is given as “binds”.

B3: G4-β1D cytoplasmic domain model protein (designed binder)
chain: GSSHHHHHHSSGLVPRGSHMKLEALEGRLDALEGKLEALEGKLDALEGGGGKLLMIIHDRREFAKFEKEKMNAKWDTQENPIYKSPINNFKNPNYGRKAGL
With B3, the binding entry in assay [2] is given as “binds”.

B4: G1-β7 cytoplasmic domain model protein (designed binder)
chain: GSSHHHHHHSSGLVPRGSHMKLEALEGRLDALEGKLEALEGKLDALEGKLSVEIYDRREYSRFEKEQQQLNWKQDSNPLYKSAITTTINPRFQEADSPTL
With B4, the binding result in assay [1] is “binds”.

Values taken from patent US20030224453A1, “Structural models for cytoplasmic domains of transmembrane receptors” (priority 1998, published 2003).
